The record followed here is PMC6484409.

By UniProt entry, the sequences of proteins in these tests, tags left out. Where a name states a change or a piece, a line headed by the entry shows the natural chain unless it says otherwise. Chains listed by the source or under a name are the forms on record and can include a tag or linker. Residues count along the entry.
Flag-S-tagged mouse ATG16L1 lipid binding-deficient mutant (I171D K179D R193D) (Q8C0J2-3, form named): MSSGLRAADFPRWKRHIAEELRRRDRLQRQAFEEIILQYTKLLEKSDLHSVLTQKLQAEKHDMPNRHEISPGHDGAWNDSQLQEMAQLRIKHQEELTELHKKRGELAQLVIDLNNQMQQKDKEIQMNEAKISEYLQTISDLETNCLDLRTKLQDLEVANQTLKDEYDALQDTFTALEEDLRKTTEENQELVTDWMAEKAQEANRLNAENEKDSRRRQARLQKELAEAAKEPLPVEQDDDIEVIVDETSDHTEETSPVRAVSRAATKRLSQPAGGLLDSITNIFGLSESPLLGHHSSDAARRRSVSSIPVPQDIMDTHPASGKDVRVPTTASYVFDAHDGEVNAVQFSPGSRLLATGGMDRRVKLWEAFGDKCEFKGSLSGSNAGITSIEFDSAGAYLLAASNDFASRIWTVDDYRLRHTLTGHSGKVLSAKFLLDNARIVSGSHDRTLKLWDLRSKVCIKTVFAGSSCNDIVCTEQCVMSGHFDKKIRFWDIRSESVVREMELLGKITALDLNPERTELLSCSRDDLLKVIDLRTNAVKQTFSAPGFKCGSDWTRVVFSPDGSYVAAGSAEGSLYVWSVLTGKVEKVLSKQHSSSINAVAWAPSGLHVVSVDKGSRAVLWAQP
Flag-S-tagged mouse ATG16L1 wild type (Q8C0J2-3, form named): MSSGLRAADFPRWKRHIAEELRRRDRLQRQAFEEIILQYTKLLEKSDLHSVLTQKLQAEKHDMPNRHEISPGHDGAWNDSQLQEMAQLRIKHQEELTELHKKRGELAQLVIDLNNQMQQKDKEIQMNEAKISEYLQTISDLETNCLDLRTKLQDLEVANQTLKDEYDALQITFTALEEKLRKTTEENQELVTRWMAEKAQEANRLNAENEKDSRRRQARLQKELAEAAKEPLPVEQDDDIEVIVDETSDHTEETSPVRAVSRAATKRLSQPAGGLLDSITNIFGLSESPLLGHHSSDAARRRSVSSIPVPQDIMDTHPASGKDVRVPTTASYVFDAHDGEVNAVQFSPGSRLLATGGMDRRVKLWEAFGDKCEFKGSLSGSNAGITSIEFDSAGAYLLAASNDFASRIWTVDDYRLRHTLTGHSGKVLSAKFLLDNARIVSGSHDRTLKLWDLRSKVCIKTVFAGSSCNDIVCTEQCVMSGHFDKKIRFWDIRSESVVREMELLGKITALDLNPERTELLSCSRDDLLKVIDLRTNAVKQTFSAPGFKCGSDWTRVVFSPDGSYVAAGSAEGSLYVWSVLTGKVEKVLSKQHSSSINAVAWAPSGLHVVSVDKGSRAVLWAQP
Flag-S-tagged mouse ATG16L1 with residues 182-205 deleted in the full-length protein (Q8C0J2-3, form named): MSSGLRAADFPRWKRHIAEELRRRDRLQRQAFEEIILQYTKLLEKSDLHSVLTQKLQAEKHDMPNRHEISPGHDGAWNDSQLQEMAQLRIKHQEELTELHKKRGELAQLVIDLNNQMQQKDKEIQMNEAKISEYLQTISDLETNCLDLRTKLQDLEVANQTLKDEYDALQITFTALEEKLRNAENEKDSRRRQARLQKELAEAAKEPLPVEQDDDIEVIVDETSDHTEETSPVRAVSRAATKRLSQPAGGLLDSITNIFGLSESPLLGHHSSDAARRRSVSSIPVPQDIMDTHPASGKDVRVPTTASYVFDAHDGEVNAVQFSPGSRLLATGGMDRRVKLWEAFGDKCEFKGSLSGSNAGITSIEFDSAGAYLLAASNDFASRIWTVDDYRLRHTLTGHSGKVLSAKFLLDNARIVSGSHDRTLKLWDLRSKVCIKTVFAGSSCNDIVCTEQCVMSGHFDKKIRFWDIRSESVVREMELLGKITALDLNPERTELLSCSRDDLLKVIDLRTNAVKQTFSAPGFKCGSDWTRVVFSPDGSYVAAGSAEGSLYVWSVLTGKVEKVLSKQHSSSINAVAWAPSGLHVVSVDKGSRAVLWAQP
UniProt Q8TDY2: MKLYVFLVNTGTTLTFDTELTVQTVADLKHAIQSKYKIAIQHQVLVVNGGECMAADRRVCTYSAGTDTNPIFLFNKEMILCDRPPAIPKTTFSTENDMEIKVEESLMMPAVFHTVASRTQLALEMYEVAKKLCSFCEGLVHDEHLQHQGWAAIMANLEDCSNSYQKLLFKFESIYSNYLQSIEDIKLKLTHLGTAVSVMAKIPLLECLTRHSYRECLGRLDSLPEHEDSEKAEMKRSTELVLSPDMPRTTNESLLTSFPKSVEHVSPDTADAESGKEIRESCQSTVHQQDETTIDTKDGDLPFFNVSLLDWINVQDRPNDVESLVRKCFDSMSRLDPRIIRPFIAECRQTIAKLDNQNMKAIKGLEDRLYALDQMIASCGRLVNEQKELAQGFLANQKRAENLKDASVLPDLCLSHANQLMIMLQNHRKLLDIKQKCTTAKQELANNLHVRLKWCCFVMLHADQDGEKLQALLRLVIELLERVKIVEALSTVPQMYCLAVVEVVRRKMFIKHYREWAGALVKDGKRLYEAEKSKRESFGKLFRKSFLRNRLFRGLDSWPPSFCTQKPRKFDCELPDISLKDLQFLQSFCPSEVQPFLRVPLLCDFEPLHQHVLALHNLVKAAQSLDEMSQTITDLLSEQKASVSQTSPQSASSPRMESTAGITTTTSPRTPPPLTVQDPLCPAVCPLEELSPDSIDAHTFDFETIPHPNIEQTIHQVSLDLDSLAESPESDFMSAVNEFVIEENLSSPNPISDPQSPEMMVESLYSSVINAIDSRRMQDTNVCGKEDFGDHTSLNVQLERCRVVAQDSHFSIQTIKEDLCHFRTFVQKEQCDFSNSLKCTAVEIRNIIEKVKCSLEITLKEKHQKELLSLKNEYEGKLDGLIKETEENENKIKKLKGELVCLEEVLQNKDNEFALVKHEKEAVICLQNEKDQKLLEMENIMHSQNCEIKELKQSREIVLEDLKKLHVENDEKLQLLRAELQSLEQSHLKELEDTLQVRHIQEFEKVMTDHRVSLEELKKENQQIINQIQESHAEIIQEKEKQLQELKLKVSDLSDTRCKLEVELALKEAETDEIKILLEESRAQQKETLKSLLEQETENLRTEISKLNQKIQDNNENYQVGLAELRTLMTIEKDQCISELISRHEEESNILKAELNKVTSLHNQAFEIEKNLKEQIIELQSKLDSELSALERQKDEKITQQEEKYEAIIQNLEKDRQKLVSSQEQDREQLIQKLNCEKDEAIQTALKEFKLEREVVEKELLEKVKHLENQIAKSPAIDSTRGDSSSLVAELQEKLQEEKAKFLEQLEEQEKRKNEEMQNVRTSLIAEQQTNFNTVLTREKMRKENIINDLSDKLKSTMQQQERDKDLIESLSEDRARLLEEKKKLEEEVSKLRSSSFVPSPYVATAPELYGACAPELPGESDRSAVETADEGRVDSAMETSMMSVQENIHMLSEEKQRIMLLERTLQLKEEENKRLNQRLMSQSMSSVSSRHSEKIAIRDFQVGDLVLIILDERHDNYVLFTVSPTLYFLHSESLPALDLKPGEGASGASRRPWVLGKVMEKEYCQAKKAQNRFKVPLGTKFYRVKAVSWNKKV

These are yes or no findings as the source states them, for the method shown. Binding seen in cells or lysates may run through a third protein. Some entries that bind do so weakly or less than the wild type.

Assay [1] deals with Flag-S-tagged mouse ATG16L1 lipid binding-deficient mutant (I171D K179D R193D) (mouse) (UniProt Q8C0J2). Put plainly: pull-down; homodimerisation assay: 293T cells co-transfected with ATG16L1-GFP and Flag-S-tagged ATG16L1 constructs; NP-40 buffer lysate; S tag pull-down on S-protein agarose at 4°C; immunoblot. In general terms: Immunoblotting shows a protein as a band on a membrane.

Assay [2] has as its target Flag-S-tagged mouse ATG16L1 with residues 182-205 deleted in the full-length protein (mouse) (UniProt Q8C0J2). The assay is described as above.
For assay [3], the target named is Flag-S-tagged mouse ATG16L1 wild type (mouse) (UniProt Q8C0J2). The description is as above.
The target in assay [4] is Flag-S-tagged mouse ATG16L1 lipid binding-deficient mutant (I171D K179D R193D) (mouse) (UniProt Q8C0J2). Put plainly: pull-down; 293T cells transiently transfected with Flag-S-tagged ATG16L1 constructs; lysis in NP-40 buffer (150 mM NaCl, 25 mM HEPES pH 7.5, 1.5 mM MgCl2, 1 mM EDTA, 1.5 mM β-ME, 0.5% NP-40); S tag pull-down on S-protein agarose 5 h or overnight at 4°C; bound proteins of the lysate (FIP200, ATG5, WIPI2) immunoblotted.

The target of assay [5] is Flag-S-tagged mouse ATG16L1 with residues 182-205 deleted in the full-length protein (mouse) (UniProt Q8C0J2). The description is as above.
In assay [6] the target is Flag-S-tagged mouse ATG16L1 wild type (mouse) (UniProt Q8C0J2). The assay is described as above.
In assay [7] the target is Flag-S-tagged mouse ATG16L1 lipid binding-deficient mutant (I171D K179D R193D) (mouse) (UniProt Q8C0J2). The assay is described as above. This is another data set of the same source.
For assay [8], the target named is Flag-S-tagged mouse ATG16L1 wild type (mouse) (UniProt Q8C0J2). Described as above. This is another data set of the same source.

As for “C-terminal tagged mouse ATG16L1^WT-GFP (from UniProt Q8C0J2-3 1-623)”, the binding entry in assay [1], in assay [2] and in assay [3] was “binds” in each case.
Take FIP200 (from UniProt Q8TDY2 1-1594): the binding entry in assay [4], in assay [5] and in assay [6] was “binds” throughout.

B1: WIPI2b (protein, UniProt Q9Y4P8-4 1-436)
chain: MNLASQSGEAGAGQLLFANFNQDNTSLAVGSKSGYKFFSLSSVDKLEQIYECTDTEDVCIVERLFSSSLVAIVSLKAPRKLKVCHFKKGTEICNYSYSNTILAVKLNRQRLIVCLEESLYIHNIRDMKVLHTIRETPPNPAGLCALSINNDNCYLAYPGSATIGEVQVFDTINLRAANMIPAHDSPLAALAFDASGTKLATASEKGTVIRVFSIPEGQKLFEFRRGVKRCVSICSLAFSMDGMFLSASSNTETVHIFKLETVKEKPPEEPTTWTGYFGKVLMASTSYLPSQVTEMFNQGRAFATVRLPFCGHKNICSLATIQKIPRLLVGAADGYLYMYNLDPQEGGECALMKQHRLDGSLETTNEILDSASHDCPLVTQTYGAAAGKGTYVPSSPTRLAYTDDLGAVGGACLEDEASALRLDEDSEHPPMILRTD
B1: the binding result in assay [7] and in assay [8] was “binds” throughout.
